## Library screening results

Sequences of proteins named here, by UniProt entry; tags and fusion partners are left off.
UniProt E9BF75, entry or part of it: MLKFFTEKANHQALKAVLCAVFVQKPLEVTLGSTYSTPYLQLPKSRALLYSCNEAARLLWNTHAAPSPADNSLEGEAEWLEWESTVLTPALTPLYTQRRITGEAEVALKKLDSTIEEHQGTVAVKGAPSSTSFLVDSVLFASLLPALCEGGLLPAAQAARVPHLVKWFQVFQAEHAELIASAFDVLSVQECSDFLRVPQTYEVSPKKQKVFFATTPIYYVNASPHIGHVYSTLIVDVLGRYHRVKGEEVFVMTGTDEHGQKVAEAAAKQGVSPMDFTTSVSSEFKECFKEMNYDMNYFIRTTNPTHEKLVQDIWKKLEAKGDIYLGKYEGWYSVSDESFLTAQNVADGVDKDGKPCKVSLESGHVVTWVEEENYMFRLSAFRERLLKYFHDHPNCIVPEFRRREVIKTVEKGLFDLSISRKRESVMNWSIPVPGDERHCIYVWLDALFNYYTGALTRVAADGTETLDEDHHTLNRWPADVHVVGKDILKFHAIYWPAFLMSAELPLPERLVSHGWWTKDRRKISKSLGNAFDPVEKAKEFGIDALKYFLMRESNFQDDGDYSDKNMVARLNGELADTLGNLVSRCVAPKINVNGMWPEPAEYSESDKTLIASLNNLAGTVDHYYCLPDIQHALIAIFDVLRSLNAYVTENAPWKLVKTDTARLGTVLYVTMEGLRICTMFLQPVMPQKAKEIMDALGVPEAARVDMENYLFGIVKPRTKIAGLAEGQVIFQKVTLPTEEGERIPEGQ

Source: ChEMBL document CHEMBL3988442, “University of Dundee, Small-Polar-MMV Screening Library” (2021).

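Methionyl-tRNA synthetase (putative), Leishmania donovani (UniProt E9BF75). Primary screen of methionyl-tRNA synthetase; the read-out is not stated. The test concentration is not given. Values are per cent inhibition. About 68,000 compounds were tested under these conditions; 0.035% (about 24) showed 50% or more at least once.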

All values are in %. How 0% and 100% were set is not recorded. Most values in the screen are low, and negative values occur. This is an unselected part of the compounds tested.

- Cc1cccc(C2CCCN(C(=O)CN3CCOC3=O)C2)c1 (stereo not shown) | 14.63%
- CC(=O)N(Cc1noc(C2CC2)n1)C1CCN(Cc2ccncc2)C1 (stereo not shown) | 4.908%
- CNC(=O)[C@@H](C1CC1)N1CCC[C@H]1C(=O)NCC(C)C | 4.396%
- COc1ccc(OC)c(C(=O)N2C[C@H]3CC[C@@H]2CN(C)C3)c1 | 0%
- c1ccc(CN2CCC(Cc3noc(C4CC4)n3)CC2)cc1 | 22.64%
- O=C1O[C@@H]2CN(CCc3ccccc3)C[C@@H]2N1CCCN1CCOCC1 | -3.377%
- CNC(=O)C(C)(C)CNC(=O)Nc1ccc(C)cn1 | 7.317%
- COc1ccc(OC)c(C(=O)N2CCC(Nc3cccnc3)CC2)c1 | 18.4%
- COCC(C)NC(=O)c1nnn(-c2ccc(F)cc2)n1 (stereo not shown) | 9.42%
- Cc1nn(C)c(Cl)c1C(=O)NCC(c1ccsc1)N(C)C (stereo not shown) | 2.347%
- CC(=O)Nc1nccn1Cc1ccccc1Cl | 17.37%
- CCNC(=O)N1CC(c2nc(Cc3ccccc3)no2)C1 | 15.73%
- CN(CC(=O)NS(=O)(=O)c1cccs1)Cc1ccccc1 | 0.8152%
- CSc1ccc(OC(C)C(=O)Nc2c(C)n[nH]c2C)cc1 (stereo not shown) | 12.88%
- CCC(CO)NC(=O)Nc1ccc(OCC(F)(F)F)c(C)c1 (stereo not shown) | 10.65%
- CC(=O)c1ccc(C(=O)NCc2ccnc(N(C)C)n2)cc1 | 10.86%
- CC(C)OCCN1CCC(Nc2ccc(C#N)cc2F)CC1 | 11.17%
- CSc1c[nH]nc1NS(=O)(=O)c1ccc(C)c(C)c1 | 8.059%
- CC1(C(N)=O)CN(S(=O)(=O)c2cccc(F)c2)CCO1 (stereo not shown) | 4.651%
- Cc1cnn(CCNCC(O)COc2ccc(Cl)cc2Cl)c1 (stereo not shown) | 21.13%
- CCN(CC)c1ncccc1CNCc1ccc(-c2ccn[nH]2)s1 | 18.41%
- CC(C)N(C(=O)Cn1nnnc1CCc1ccccc1)C(C)C | 5.415%
- CCS(=O)(=O)N1Cc2ccccc2CC1C(=O)OCc1c(C)noc1C (stereo not shown) | 5.962%
- CCC(CCNCc1cnc(C2CCC2)s1)N1CCCC1=O (stereo not shown) | 3.546%
- O=C(NCCNc1cnccn1)N1CCN(c2nccs2)CC1 | 17.09%
- CCc1ccc(S(=O)(=O)N2CCCC3(CCCN3S(C)(=O)=O)C2)cc1 (stereo not shown) | 4.061%
- CN(CCc1ccccc1)Cc1cc(C(=O)N2CCSCC2)no1 | 12.97%
- CCn1cnnc1CNC(=O)N1CCOC(c2ccccc2Cl)C1 (stereo not shown) | 13.6%
- CN(C)C[C@@H]1CN(C2CCN(c3ccc(Cl)cc3)CC2)C[C@@H]1CO | 11.76%
- CCc1ccc(-c2c(C)c(-c3cnn(C)c3)nc(N)c2C#N)o1 | 14.78%
- Cc1cccc(SC2CCN(C(=O)CCCS(N)(=O)=O)CC2)c1 | 10.73%
- Cc1cccc(-c2nc(C)nn2CC(=O)NC(C)C)c1 | 1.425%
- CCc1nccn1C1CCCN(C(=O)c2cnc[nH]2)C1 (stereo not shown) | 16.19%
- CCNc1cc(N2CCN(C(=O)c3ccc(OC)cc3)CC2)nc(C)n1 | 10.03%
- COc1ccnc(N2CCN(Cc3nc(-c4ccoc4)no3)CC2)c1 | 18.31%
- Cn1cc(CN(C(=O)c2ccc3ncsc3c2)C2CC2)cn1 | 1.858%
- COc1ccccc1C1(C(=O)N2CCN(CC(C)O)CC2)CC1 (stereo not shown) | 10.42%
- CCCC(=O)N1Cc2ccccc2CC2(CCN(C)C2)C1 (stereo not shown) | 6.286%
- COc1cc(CNCc2ccnc(N3CCOCC3)c2)cc(OC)c1 | 8.889%
- CN(C)CC1CN(C(=O)NCc2ccccc2)Cc2nccn2C1 (stereo not shown) | 21.5%
- O=C(NCCc1nncn1C1CC1)C1SCCc2sccc21 (stereo not shown) | 12.63%
- O=C(CN1CCCCC1Cn1cncn1)Nc1ccncc1 (stereo not shown) | 7.649%
- Cn1ccc(C(=O)NCc2ccc(CN3CCCCC3)cc2)cc1=O | 19.32%
- CNC(=O)CCc1cccc(OC2CCCC2)c1 | 7.521%

The last 5 entries again:

| SMILES | inhibition |
|---|---|
| `CN(C)CC1CN(C(=O)NCc2ccccc2)Cc2nccn2C1` (stereo not shown) | 21.5 |
| `O=C(NCCc1nncn1C1CC1)C1SCCc2sccc21` (stereo not shown) | 12.63 |
| `O=C(CN1CCCCC1Cn1cncn1)Nc1ccncc1` (stereo not shown) | 7.649 |
| `Cn1ccc(C(=O)NCc2ccc(CN3CCCCC3)cc2)cc1=O` | 19.32 |
| `CNC(=O)CCc1cccc(OC2CCCC2)c1` | 7.521 |